7 molecules from patent publication US20030180306A1 (Pfizer, published 2003) can be followed below.

Assay [1] addresses T1, mature GDF-8 from pooled normal human serum (human) (UniProt O14793).
T1 sequence (looked up): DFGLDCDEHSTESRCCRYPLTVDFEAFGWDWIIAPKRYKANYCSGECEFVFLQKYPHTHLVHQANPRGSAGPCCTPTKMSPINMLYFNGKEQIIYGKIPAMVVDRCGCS
Description: co-purification with GDF-8 on JA16-agarose from human serum, LC-MS/MS.

Assay [2] has as its target T1, mature GDF-8 from pooled normal human serum (human). As to the kind of experiment: co-purification with GDF-8 on JA16-agarose from human serum, nanoflow LC-MS/MS.
Assay [3] addresses T2, recombinant purified GDF-8 (UniProt O14793 267-375, limits assumed).
T2 sequence (looked up): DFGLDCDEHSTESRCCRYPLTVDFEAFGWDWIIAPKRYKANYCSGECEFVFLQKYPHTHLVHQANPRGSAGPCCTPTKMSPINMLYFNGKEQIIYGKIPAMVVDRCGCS
As to the kind of experiment: co-immunoprecipitation with JA16-agarose, anti-propeptide western blot. (Immunoblotting shows a protein as a band on a membrane.)

Assay [4] has as its target T3, mature GDF-8 from normal mouse serum (mouse) (UniProt O08689).
T3 sequence (looked up): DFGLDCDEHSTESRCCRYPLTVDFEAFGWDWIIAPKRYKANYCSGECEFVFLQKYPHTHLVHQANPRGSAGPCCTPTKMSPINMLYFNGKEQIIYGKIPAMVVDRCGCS
Description: co-purification with GDF-8 on JA16-agarose, MS/MS and western blot.

Assay [5] deals with T3, mature GDF-8 from normal mouse serum (mouse). As to the kind of experiment: large scale JA16 immunoprecipitation from mouse serum, nanoflow-LC-MS/MS.
Assay [6] shares this target. Description: co-purification with GDF-8 on JA16-agarose from mouse serum, silver stained gel.
For assay [7] the target is unchanged. As to the kind of experiment: co-purification with GDF-8 on JA16-agarose from mouse serum, MS/MS and western blot.
For assay [8] the target is unchanged. Description: co-purification with GDF-8 on JA16-agarose from serum, MS/MS.
The target is the same in assay [9]. Description: co-purification with GDF-8 on JA16-agarose from mouse serum, MS/MS.
For assay [10] the target is unchanged. Description: co-purification with GDF-8 on JA16-agarose from mouse serum, MS/MS against the Celera database.
Assay [11] has as its target T4, recombinant purified GDF-8 propeptide protein (UniProt O14793).
T4 sequence (looked up): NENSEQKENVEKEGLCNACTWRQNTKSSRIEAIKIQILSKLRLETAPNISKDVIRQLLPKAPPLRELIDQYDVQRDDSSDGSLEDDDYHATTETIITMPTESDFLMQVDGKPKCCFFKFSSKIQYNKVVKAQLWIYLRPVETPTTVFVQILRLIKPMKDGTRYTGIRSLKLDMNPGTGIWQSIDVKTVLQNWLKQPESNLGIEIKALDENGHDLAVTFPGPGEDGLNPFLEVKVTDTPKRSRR
As to the kind of experiment: co-immunoprecipitation (JA16 or anti-V5), western blot.

Assay [12] deals with T4, recombinant purified GDF-8 propeptide protein. As to the kind of experiment: co-immunoprecipitation with anti-V5 agarose, anti-propeptide western blot.

No constants are given. Whether binding was seen depends on the method and setting. Binding seen in cells or lysates may run through a third protein. Some entries that bind do so weakly or less than the wild type. For some of these results: Sequences can lack the tags named with a protein.

As for “GDF-8 propeptide from pooled normal human serum (from UniProt O14793 24-266)”, the binding result in [1] and in assay [2] was “binds” in each case.
For “recombinant purified GDF-8 propeptide protein (from UniProt O14793 24-266)”, the binding entry in assay [3] was “binds”.

B1: GDF-8 propeptide from normal mouse serum (protein, UniProt O08689 25-267, looked up)
chain: NEGSEREENVEKEGLCNACAWRQNTRYSRIEAIKIQILSKLRLETAPNISKDAIRQLLPRAPPLRELIDQYDVQRDDSSDGSLEDDDYHATTETIITMPTESDFLMQADGKPKCCFFKFSSKIQYNKVVKAQLWIYLRPVKTPTTVFVQILRLIKPMKDGTRYTGIRSLKLDMSPGTGIWQSIDVKTVLQNWLKQPESNLGIEIKALDENGHDLAVTFPGPGEDGLNPFLEVKVTDTPKRSRR
In the case of B1, the binding entry in assay [4], in assay [5], in assay [6] and in assay [7] was “binds” each time.

B2: human FLRG from pooled normal human serum (protein, UniProt O95633 27-263, looked up)
chain: MGSGNPAPGGVCWLQQGQEATCSLVLQTDVTRAECCASGNIDTAWSNLTHPGNKINLLGFLGLVHCLPCKDSCDGVECGPGKACRMLGGRPRCECAPDCSGLPARLQVCGSDGATYRDECELRAARCRGHPDLSVMYRGRCRKSCEHVVCPRPQSCVVDQTGSAHCVVCRAAPCPVPSSPGQELCGNNNVTYISSCHMRQATCFLGRSIGVRHAGSCAGTPEEPPGGESAEEEENFV
For the molecule B2, the binding entry in assay [1] and in assay [2] was “binds” each time.

B3: follistatin-like related gene (FLRG) from normal mouse serum (protein, UniProt Q9EQC7 24-256, looked up)
chain: VMGSEDSVPGGVCWLQQGREATCSLVLKTRVSREECCASGNINTAWSNFTHPGNKISLLGFLGLVHCLPCKDSCDGVECGPGKACRMLGGRPHCECVPNCEGLPAGFQVCGSDGATYRDECELRTARCRGHPDLRVMYRGRCQKSCAQVVCPRPQSCLVDQTGSAHCVVCRAAPCPVPSNPGQELCGNNNVTYISSCHLRQATCFLGRSIGVRHPGICTGGPKVPAEEEENFV
For the molecule B3, the binding result in [4], in assay [5], in assay [6] and in assay [7] was “binds” throughout.

B4: GDF-associated serum protein 1 (GASP1) from normal mouse serum (protein)
chain: LPPIRYSHAGICPNDMNPNLWVDAQSTCKRECETDQECETYEKCCPNVCGTKSCVAARYMDVKGKKGPVGMPKEATCDHFMCLQQGSECDIWDGQPVCKCKDRCEKEPSFTCASDGLTYYNRCFMDAEACSKGITLSVVTCRYHFTWPNTSPPPPETTVHPTTASPETLGLDMAAPALLNHPVHQSVTVGETVSFLCDVVGRPRPELTWEKQLEDRENVVMRPNHVRGNVVVTNIAQLVIYNVQPQDAGIYTCTARNVAGVLRADFPLSVVRGGQARATSESSLNGTAFPATECLKPPDSEDCGEEQTRWHFDAQANNCLTFTFGHCHHNLNHFETYEACMLACMSGPLATCSLPALQGPCKAYVPRWAYNSQTGLCQSFVYGGCEGNGNNFESREACEESCPFPRGNQHCRACKPRQKLVTSFCRSDFVILGRVSELTEEQDSGRALVTVDEVLKDEKMGLKFLGREPLEVTLLHVDWTCPCPNVTVGETPLIIMGEVDGGMAMLRPDSFVGASSTRRVRKLREVMYKKTCDVLKDFLGLQ
For B4, the binding entry in assay [8], in [9], in assay [5] and in assay [10] was “binds” throughout.

B5: mouse GASP1 cloned with a C-terminal V5-His tag (GASP1-V5-His) (other, not shown: small tags and cut ends)
chain: LPPIRYSHAGICPNDMNPNLWVDAQSTCKRECETDQECETYEKCCPNVCGTKSCVAARYMDVKGKKGPVGMPKEATCDHFMCLQQGSECDIWDGQPVCKCKDRCEKEPSFTCASDGLTYYNRCFMDAEACSKGITLSVVTCRYHFTWPNTSPPPPETTVHPTTASPETLGLDMAAPALLNHPVHQSVTVGETVSFLCDVVGRPRPELTWEKQLEDRENVVMRPNHVRGNVVVTNIAQLVIYNVQPQDAGIYTCTARNVAGVLRADFPLSVVRGGQARATSESSLNGTAFPATECLKPPDSEDCGEEQTRWHFDAQANNCLTFTFGHCHHNLNHFETYEACMLACMSGPLATCSLPALQGPCKAYVPRWAYNSQTGLCQSFVYGGCEGNGNNFESREACEESCPFPRGNQHCRACKPRQKLVTSFCRSDFVILGRVSELTEEQDSGRALVTVDEVLKDEKMGLKFLGREPLEVTLLHVDWTCPCPNVTVGETPLIIMGEVDGGMAMLRPDSFVGASSTRRVRKLREVMYKKTCDVLKDFLGLQ
As for B5, the binding result in [11] and in assay [12] was “binds” throughout.
